# Measurements: article PMC12431657, “Discovery and mechanistic insights of dibenzoylmethane as a broad spectrum inhibitor of coronavirus” (PLOS Pathogens, 2025)
# Where a name gives a salt, the structure may show the parent alone. Read-outs that look alike come from different tables or passages of the source. Out of some 3,300 compounds screened, about 60 (2%) showed an effect of 50% or more. The list shows a part of the results. Bridge positions count the residues as written; N and C are the ends. Square brackets hold non-standard residues; d marks the D form. Peptide text beside a SMILES is read from it. * marks the point of attachment. Ileψ(thiazoline)Cys = CC[C@H](C)[C@H](N)C1=N[C@H](C(=O)*)CS1; dOrn = NCCC[C@@H](N)C(=O)O
# System: HCoV-OC43
# Parameters: species or system RD; HTS, protection from HCoV-OC43 induced cell death, luminescent cell viability (CellCounting-Lite 2.0), inhibition rate
# Conditions: 24 h post infection, 1 h compound pre-incubation, 10 µM, inhibitor
SMILES,OC43 Inhibition rate [%],"OC43 Inhibition rate (OC43 Inhibition rate, 24 h) [%]"
C[C@H]1CC[C@@]2(OC1)O[C@H]1C[C@H]3[C@@H]4CC=C5C[C@@H](O[C@@H]6O[C@H](CO)[C@@H](O)[C@H](O[C@@H]7OC[C@@H](O)[C@H](O)[C@H]7O)[C@H]6O[C@@H]6O[C@@H](C)[C@H](O)[C@@H](O)[C@H]6O)CC[C@]5(C)[C@H]4CC[C@]3(C)[C@H]1[C@@H]2C [Liriope muscari baily saponins C],66.1,–
COc1cc(O[C@@H]2O[C@H](CO)[C@@H](O)[C@H](O)[C@H]2O)c2c(O)c(C(C)=O)c(C)cc2c1 [Torachrysone-8-O-b-D-glucoside],0.6,–
COc1cc([C@@H]2c3cc4c(cc3[C@H](O)[C@H]3COC(=O)[C@@H]23)OCO4)cc(OC)c1OC [Picropodophyllin],5.9,–
O=c1cc(-c2ccccc2)oc2c(O)c(O)cc(O)c12 [Norwogonin],-0.3,–
CC(C)=CCC/C(C)=C/Cc1c(O)ccc(C(=O)/C=C/c2ccc(O)cc2)c1O [Xanthoangelol],4.7,–
CC(C)=CCC[C@](C)(O)[C@H]1CC[C@]2(C)[C@@H]1[C@H](O)C[C@@H]1[C@@]3(C)CC[C@H](O)C(C)(C)[C@@H]3CC[C@]12C [(20S)-Protopanaxadiol],33,–
Nc1ncnc2c1ncn2[C@@H]1O[C@H](COP(=O)(O)OP(=O)(O)OP(=O)(O)O)[C@@H](O)[C@H]1O [ATP (disodium salt hydrate)],–,-0.2
CC[C@H]1CN2CC[C@]3(C(=O)Nc4ccccc43)[C@@H]2C[C@@H]1/C(=C\OC)C(=O)OC [Rhynchophylline],2.9,–
O=C(O)CCCC(=O)O [Glutaric acid],-0.5,–
C[C@]12C[C@@H](O)[C@@H]3C[C@@]1(O[C@@H]1O[C@H](CO)[C@@H](O)[C@H](O)[C@H]1O)[C@]3(COC(=O)c1ccccc1)C(=O)O2 [Albiflorin],-0.4,–
C1=C2CCCN[C@H]2[C@@H]2C[C@H]1[C@H]1CCCCN1C2 [Aloperine],26.4,–
NC(=O)[C@@H](N)Cc1c[nH]c2ccccc12 [H-Trp-NH2.HCl],0.1,–
COc1ccc(-c2coc3c([C@@H]4O[C@H](CO)[C@@H](O)[C@H](O)[C@H]4O)c(O)ccc3c2=O)cc1 [4'-Methoxypuerarin],2.5,–
O=c1cc(CO)occ1O [Kojic acid],-0.2,–
C=CCSC[C@H](N)C(=O)O [S-Allyl-L-cysteine],5,–
COc1cc(CNC(=O)CCCCCCCC(C)C)ccc1O [Homodihydrocapsaicin I],6.8,–
CC(CC(=O)CC(C)(O)[C@H]1CC(=O)[C@@]2(C)C3=C(C(=O)C[C@]12C)[C@@]1(C)CCC(=O)C(C)(C)[C@@H]1C[C@@H]3O)C(=O)O (stereo partly drawn) [Ganoderic acid N],0.7,–
C=C1CCOC1=O [Tulipalin A],28.2,–
COc1ccc(-c2cc(=S)ss2)cc1 [Anethole trithione],24.4,–
COc1cc(C2Oc3ccc([C@H]4Oc5cc(O)cc(O)c5C(=O)[C@@H]4O)cc3OC2CO)ccc1O (stereo partly drawn) [Isosilybin],1.2,–
CC(=O)O[C@@H]1CC[C@@]2(C)[C@@H](CC[C@]3(C)[C@@H]2CC=C2[C@@H]4[C@@H](C)[C@H](C)CC[C@]4(C)CC[C@]23C)[C@@]1(C)C(=O)O [3-Acetyl-beta-boswellic acid],66.7,–
C/C=C(\C)C(=O)OC1c2c(ccc3ccc(=O)oc23)OC(C)(C)C1OC(=O)/C(C)=C/C (stereo not drawn) [Praeruptorin B],7.3,–
C=CCSSSCC=C [Diallyl Trisulfide],-3.7,–
CC(=O)Nc1ccn([C@@H]2O[C@H](COP(=O)(O)OP(=O)(O)OP(=O)(O)O)[C@@H](O)[C@H]2O)c(=O)n1 [N4-Acetylcytidine triphosphate (sodium)],0.7,–
COc1cc(CCC(O)CCCCc2ccccc2)ccc1O (stereo not drawn) [Oxyphyllacinol],0.5,–
Cn1c(=O)[nH]c2ncn(C)c2c1=O [Paraxanthine],-0.1,–
COc1cc2c(cc1OC)-c1cc3ccc(OC)c(OC)c3c[n+]1CC2 [Palmatine (hydroxide)],–,-1.7

# Single entries from the results shown:
# Value for NC(=O)[C@@H](N)Cc1c[nH]c2ccccc12 [H-Trp-NH2.HCl] under OC43 Inhibition rate [%]: 0.1
# Value for O=c1cc(-c2ccccc2)oc2c(O)c(O)cc(O)c12 [Norwogonin] under OC43 Inhibition rate [%]: -0.3
# Value for C[C@H]1CC[C@@]2(OC1)O[C@H]1C[C@H]3[C@@H]4CC=C5C[C@@H](O[C@@H]6O[C@H](CO)[C@@H](O)[C@H](O[C@@H]7OC[C@@H](O)[C@H](O)[C@H]7O)[C@H]6O[C@@H]6O[C@@H](C)[C@H](O)[C@@H](O)[C@H]6O)CC[C@]5(C)[C@H]4CC[C@]3(C)[C@H]1[C@@H]2C [Liriope muscari baily saponins C] under OC43 Inhibition rate [%]: 66.1
# Value for C=CCSSSCC=C [Diallyl Trisulfide] under OC43 Inhibition rate [%]: -3.7
# Value for O=c1cc(CO)occ1O [Kojic acid] under OC43 Inhibition rate [%]: -0.2

# (further entries)

SMILES,OC43 Inhibition rate [%],"OC43 Inhibition rate (OC43 Inhibition rate, 24 h) [%]"
C[C@H]1[C@H](C)CC[C@]2(C(=O)O[C@@H]3O[C@H](CO[C@@H]4O[C@H](CO)[C@@H](O[C@@H]5O[C@@H](C)[C@H](O)[C@@H](O)[C@H]5O)[C@H](O)[C@H]4O)[C@@H](O)[C@H](O)[C@H]3O)CC[C@]3(C)C(=CC[C@@H]4[C@@]5(C)C[C@@H](O)[C@H](O)[C@@](C)(CO)[C@@H]5[C@H](O)C[C@]43C)[C@H]12 [Madecassoside],-1,–
O[C@H]1CCN2Cc3ccccc3N=C12 [Vasicine (hydrochloride)],-2.2,–
C[C@@H](CO[C@@H]1O[C@H](CO)[C@@H](O)[C@H](O)[C@H]1O)[C@@H]1CC[C@@]2(CC[C@]3(C)[C@H](CC[C@@H]4[C@@]5(C)CC[C@H](O[C@@H]6O[C@H](CO)[C@@H](O)[C@H](O)[C@H]6O[C@@H]6OC[C@@H](O)[C@H](O)[C@H]6O)[C@@](C)(CO[C@@H]6O[C@H](CO)[C@@H](O)[C@H](O)[C@H]6O)[C@@H]5CC[C@]43C)[C@H]2O)CO1 [Hosenkoside M],3.5,–
"NC(CCSSCCC(N)C(=O)O)C(=O)O (stereo not drawn) [4,4'-Disulfanediylbis(2-aminobutanoic acid)]",-0.3,–
OC[C@H]1O[C@H](O[C@H]2O[C@H](CO)[C@@H](O)[C@H](O)[C@H]2O)[C@H](O)[C@@H](O)[C@@H]1O [D-(+)-Trehalose],–,2.4
C[C@H]1[C@H](C)CC[C@]2(CO)CC[C@]3(C)C(=CC[C@@H]4[C@@]5(C)CC[C@H](O)C(C)(C)[C@@H]5CC[C@]43C)[C@H]12 [Uvaol],-0.1,–
CC(C)(CO)[C@@H](O)C(=O)NCCC(=O)O [D-Pantothenic acid],–,1.1
C[N+](C)(C)CCO [L-Uridine],-1.6,–
O=C(c1ccc(O)cc1)c1c(O)cc(O)c([C@@H]2O[C@H](CO)[C@@H](O)[C@H](O)[C@H]2O)c1O [Iriflophenone 3-C-glucoside],-0.4,–
CC(=O)OC[C@H](N)C(=O)O [O-Acetylserine],-0.4,–
Oc1cc(O)c2c(c1)O[C@H](c1cc(O)c(O)c(O)c1)[C@H](O)C2 [(-)-Epigallocatechin],-0.4,–
O=C(/C=C/c1ccc(O[C@@H]2O[C@H](CO)[C@@H](O)[C@H](O)[C@H]2O[C@@H]2OC[C@](O)(CO)[C@H]2O)cc1)c1ccc(O)cc1O [Isoliquiritin apioside],-0.9,–
O=C1CC(c2ccc(O)cc2)Oc2cc(O)cc(O)c21 (racemic) [(±)-Naringenin],1.1,–
COc1cc(/C=C/C(=O)OC(C)C)ccc1O [Isopropyl ferulate],0.7,–
CC(C)CCCCCCCCCCCC(=O)O [13-Methyltetradecanoic acid],-0.6,–
Nc1ncnc2c1ncn2[C@@H]1O[C@H](COP(=O)(O)O)[C@@H](O)[C@H]1O [Adenosine monophosphate],–,0
O=c1ccc2ccc(O[C@@H]3O[C@H](CO)[C@@H](O)[C@H](O)[C@H]3O)cc2o1 [Skimmin],-0.4,–
c1ccc(CSSCc2ccccc2)cc1 [Dibenzyl disulfide],0,–
CC(S)C(=O)NCC(=O)O (stereo not drawn) [Tiopronin],-0.6,–
Cc1c[nH]c2ccccc12 [Skatole],2,–
O=C(c1ccccc1)C(O)c1ccccc1 (stereo not drawn) [Benzoin],-0.1,–
CC(C)=CCC[C@](C)(O)[C@H]1CC[C@]2(C)[C@@H]1[C@H](O)C[C@@H]1[C@@]3(C)C[C@@H](O)[C@H](O[C@@H]4O[C@H](CO)[C@@H](O)[C@H](O)[C@H]4O[C@@H]4O[C@H](CO)[C@@H](O)[C@H](O)[C@H]4O)C(C)(C)[C@@H]3CC[C@]12C [Gypenoside L],-0.2,–
CC[C@H](C)[C@H](N)C1=N[C@H](C(=O)N[C@@H](CC(C)C)C(=O)N[C@H](CCC(=O)O)C(=O)N[C@H](C(=O)N[C@H]2CCCCNC(=O)[C@H](CC(N)=O)NC(=O)[C@@H](CC(=O)O)NC(=O)[C@H](Cc3cnc[nH]3)NC(=O)[C@@H](Cc3ccccc3)NC(=O)[C@H]([C@@H](C)CC)NC(=O)[C@@H](CCCN)NC2=O)[C@@H](C)CC)CS1 [Bacitracin] ({Ileψ(thiazoline)Cys}-L[dE]IK[dOrn]I[dF]H[dD]N; lactam 4-C),-0.3,–
C[C@@H]1CC[C@@]2(OC1)O[C@H]1C[C@H]3[C@@H]4CC=C5C[C@@H](O[C@@H]6O[C@H](CO)[C@@H](O[C@@H]7O[C@H](CO)[C@@H](O)[C@H](O)[C@H]7O)[C@H](O)[C@H]6O[C@@H]6O[C@@H](C)[C@H](O)[C@@H](O)[C@H]6O)CC[C@]5(C)[C@H]4CC[C@]3(C)[C@H]1[C@@H]2C [Deltonin],-3.7,–
O=C(CCc1ccc(O)cc1)c1c(O)cc(O)cc1O [Phloretin],-0.3,–
CC(=O)OC/C1=C\[C@H]2[C@@H](OC(=O)/C=C/c3ccccc3)[C@@H](C)C[C@]2(OC(C)=O)C(=O)/C(C)=C/[C@@H]2[C@H](CC1)C2(C)C [Euphorbia factor L7a],75.3,–
CC(=O)OCC1=C[C@@H]2OC(=O)C3=CO[C@@H](O[C@@H]4O[C@H](CO)[C@@H](O)[C@H](O)[C@H]4O)[C@H]1[C@@H]32 [Asperuloside],0.7,–
